Values of other authors as cited in patent publication US20260284201A1, “COMPOSITIONS AND METHODS FOR TREATING TENDON AND BONE INJURIES” (The United States Government as represented by the …, priority 2023, published 2026).

Tested on: human rotator cuff tendon fibroblasts
Settings: low dose, in vitro; cited from earlier work

For NCCCC(O)(P(=O)(O)O)P(=O)(O)O [alendronate], the “viability, proliferation and wound healing capacity” value is listed as “little effect”.
